By UniProt entry, the sequences of proteins in these tests, tags left out. Where a name states a change or a piece, a line headed by the entry shows the natural chain unless it says otherwise.
UniProt Q96ME7: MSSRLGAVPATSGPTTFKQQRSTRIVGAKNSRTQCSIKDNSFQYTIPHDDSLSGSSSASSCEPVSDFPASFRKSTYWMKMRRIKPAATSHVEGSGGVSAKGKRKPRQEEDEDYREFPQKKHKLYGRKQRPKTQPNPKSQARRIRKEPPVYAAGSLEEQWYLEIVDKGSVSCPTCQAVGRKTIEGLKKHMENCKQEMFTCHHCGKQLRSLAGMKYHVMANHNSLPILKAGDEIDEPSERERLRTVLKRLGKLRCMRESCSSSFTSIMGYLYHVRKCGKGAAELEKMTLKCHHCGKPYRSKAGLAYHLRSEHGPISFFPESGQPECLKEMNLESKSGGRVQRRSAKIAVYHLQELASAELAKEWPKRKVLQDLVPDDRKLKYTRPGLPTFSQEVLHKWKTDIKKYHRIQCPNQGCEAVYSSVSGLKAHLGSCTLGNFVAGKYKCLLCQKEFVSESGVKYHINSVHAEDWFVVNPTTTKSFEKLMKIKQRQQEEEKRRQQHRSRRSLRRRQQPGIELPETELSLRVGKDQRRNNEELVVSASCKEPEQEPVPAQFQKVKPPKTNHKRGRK
UniProt Q96HP4: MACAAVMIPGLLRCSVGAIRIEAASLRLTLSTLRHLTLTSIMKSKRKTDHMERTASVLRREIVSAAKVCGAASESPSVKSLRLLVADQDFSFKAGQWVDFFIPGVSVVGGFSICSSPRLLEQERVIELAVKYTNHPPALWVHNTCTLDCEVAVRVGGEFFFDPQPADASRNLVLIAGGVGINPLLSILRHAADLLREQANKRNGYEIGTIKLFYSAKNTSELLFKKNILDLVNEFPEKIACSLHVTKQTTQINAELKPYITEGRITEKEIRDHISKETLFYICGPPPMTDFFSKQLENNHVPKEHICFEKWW
UniProt Q96NA2: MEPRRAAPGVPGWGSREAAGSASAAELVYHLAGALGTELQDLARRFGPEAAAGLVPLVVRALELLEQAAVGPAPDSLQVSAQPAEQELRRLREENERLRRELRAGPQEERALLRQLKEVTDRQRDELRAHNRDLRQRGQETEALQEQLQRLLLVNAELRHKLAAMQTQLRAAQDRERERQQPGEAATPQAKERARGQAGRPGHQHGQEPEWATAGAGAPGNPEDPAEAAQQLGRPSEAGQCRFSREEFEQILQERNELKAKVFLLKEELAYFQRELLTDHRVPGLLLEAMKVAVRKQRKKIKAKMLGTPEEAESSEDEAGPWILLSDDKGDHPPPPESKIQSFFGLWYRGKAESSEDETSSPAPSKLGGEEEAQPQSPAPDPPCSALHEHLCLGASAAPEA
UniProt Q96QC0: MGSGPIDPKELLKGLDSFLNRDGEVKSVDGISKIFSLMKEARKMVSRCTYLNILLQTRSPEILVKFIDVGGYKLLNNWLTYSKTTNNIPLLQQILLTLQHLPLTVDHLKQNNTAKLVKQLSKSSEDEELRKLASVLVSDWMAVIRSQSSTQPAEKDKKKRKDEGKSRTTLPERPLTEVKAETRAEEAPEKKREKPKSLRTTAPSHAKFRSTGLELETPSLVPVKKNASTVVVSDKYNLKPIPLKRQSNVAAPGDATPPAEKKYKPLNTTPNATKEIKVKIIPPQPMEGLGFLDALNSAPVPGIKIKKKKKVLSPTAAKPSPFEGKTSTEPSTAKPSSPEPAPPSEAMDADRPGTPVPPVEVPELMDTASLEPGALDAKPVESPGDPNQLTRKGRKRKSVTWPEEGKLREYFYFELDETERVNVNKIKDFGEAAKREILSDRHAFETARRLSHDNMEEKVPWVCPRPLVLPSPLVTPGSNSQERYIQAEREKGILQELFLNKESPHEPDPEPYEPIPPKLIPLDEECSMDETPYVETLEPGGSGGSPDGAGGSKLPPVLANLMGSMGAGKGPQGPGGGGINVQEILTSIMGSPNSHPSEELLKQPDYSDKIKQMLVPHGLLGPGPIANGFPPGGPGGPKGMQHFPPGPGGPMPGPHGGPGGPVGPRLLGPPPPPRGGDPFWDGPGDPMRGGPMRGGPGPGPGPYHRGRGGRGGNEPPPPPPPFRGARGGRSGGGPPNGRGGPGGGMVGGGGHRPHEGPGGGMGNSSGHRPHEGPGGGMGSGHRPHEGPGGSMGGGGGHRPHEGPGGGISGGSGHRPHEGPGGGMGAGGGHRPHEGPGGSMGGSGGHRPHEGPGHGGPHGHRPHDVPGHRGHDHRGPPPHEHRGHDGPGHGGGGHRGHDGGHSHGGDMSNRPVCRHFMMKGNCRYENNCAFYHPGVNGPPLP
UniProt Q96RT7, whole entry: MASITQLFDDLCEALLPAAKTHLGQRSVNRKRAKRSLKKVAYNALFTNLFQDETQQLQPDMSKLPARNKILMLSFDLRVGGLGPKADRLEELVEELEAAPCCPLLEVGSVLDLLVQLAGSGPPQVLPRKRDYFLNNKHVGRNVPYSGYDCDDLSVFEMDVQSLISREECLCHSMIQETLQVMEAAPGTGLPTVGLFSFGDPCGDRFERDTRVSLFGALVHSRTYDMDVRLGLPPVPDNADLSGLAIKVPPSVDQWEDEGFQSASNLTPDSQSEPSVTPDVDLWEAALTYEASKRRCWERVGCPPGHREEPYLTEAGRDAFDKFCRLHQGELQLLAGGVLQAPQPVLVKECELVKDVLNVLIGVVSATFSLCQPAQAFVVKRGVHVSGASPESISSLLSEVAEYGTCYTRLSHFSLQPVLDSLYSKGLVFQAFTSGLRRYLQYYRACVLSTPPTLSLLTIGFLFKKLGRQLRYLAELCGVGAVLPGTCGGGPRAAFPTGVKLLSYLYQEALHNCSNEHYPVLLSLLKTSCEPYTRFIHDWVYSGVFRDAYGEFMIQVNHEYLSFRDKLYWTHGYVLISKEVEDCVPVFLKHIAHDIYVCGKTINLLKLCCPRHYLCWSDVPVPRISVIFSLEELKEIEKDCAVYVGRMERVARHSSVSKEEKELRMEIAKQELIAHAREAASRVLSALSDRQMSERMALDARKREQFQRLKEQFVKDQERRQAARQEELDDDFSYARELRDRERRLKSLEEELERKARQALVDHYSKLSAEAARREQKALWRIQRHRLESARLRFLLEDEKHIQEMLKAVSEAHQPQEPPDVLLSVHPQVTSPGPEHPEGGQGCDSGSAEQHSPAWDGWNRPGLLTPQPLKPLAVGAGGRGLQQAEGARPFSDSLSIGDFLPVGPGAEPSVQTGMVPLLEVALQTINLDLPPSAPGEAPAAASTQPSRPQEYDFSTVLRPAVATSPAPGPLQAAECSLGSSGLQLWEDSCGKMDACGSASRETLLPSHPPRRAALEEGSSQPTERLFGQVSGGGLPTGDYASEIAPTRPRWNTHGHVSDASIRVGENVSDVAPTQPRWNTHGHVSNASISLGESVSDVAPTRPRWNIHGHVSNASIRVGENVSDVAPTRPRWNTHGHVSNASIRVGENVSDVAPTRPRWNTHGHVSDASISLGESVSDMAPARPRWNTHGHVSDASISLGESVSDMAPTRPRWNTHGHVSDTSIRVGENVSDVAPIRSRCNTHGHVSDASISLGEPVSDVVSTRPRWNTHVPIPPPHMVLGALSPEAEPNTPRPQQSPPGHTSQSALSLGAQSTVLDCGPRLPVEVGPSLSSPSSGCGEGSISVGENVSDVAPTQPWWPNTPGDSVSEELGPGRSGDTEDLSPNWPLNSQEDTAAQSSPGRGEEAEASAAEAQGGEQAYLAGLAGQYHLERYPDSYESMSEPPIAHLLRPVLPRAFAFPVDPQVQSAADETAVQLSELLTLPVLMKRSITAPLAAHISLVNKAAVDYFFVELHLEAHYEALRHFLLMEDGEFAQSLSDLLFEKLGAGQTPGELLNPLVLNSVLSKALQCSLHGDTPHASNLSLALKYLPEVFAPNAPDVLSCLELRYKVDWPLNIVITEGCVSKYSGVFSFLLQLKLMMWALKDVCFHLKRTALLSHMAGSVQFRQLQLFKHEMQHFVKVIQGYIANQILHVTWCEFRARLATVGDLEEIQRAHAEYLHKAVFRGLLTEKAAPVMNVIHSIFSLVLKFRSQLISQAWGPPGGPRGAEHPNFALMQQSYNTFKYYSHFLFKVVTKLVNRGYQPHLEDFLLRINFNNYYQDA
UniProt Q96JG6: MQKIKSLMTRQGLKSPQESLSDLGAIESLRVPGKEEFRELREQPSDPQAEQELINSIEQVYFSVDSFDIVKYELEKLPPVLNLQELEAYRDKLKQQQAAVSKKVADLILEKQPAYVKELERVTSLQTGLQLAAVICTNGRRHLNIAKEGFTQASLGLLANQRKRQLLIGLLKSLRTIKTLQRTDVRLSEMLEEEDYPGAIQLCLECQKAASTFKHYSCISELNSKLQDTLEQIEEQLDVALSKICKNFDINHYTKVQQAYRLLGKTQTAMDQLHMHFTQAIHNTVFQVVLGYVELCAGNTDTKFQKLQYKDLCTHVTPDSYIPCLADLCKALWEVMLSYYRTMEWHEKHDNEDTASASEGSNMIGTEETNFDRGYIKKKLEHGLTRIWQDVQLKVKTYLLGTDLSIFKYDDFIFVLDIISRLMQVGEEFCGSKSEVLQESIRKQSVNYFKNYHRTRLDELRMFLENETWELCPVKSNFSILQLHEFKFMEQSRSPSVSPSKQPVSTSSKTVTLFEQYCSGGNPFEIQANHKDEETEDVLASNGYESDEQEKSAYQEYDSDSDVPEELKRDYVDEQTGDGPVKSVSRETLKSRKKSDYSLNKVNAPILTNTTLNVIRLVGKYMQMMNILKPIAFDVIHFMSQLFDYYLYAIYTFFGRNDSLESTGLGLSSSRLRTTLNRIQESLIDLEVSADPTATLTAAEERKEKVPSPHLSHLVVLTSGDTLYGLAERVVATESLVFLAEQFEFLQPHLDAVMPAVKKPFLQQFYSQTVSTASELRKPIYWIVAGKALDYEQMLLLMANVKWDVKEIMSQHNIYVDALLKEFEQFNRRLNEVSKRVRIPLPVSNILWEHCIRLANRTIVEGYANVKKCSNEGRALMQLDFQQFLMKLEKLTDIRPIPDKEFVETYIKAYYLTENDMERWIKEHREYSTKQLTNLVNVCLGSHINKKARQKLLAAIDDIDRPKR
UniProt Q96HJ9: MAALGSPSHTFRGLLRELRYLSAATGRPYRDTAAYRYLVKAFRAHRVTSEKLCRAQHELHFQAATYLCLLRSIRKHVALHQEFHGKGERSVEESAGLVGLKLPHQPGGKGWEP
UniProt Q96LW1: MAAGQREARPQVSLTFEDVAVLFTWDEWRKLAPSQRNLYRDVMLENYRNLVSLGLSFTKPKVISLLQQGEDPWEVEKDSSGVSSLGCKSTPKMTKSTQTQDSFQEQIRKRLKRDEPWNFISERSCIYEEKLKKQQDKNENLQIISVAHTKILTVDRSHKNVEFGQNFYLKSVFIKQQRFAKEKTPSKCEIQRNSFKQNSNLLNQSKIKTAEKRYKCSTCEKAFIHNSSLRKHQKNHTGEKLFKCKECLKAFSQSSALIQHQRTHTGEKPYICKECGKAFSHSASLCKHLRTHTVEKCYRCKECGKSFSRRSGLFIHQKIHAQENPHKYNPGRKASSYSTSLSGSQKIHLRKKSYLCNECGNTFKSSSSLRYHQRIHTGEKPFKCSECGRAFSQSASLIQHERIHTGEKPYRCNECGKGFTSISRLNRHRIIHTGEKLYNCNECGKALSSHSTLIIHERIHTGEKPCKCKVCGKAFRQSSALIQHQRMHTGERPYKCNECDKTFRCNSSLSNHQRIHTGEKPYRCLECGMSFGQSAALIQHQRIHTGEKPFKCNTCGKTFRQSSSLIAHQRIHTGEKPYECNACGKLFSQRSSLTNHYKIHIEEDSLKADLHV
UniProt Q96K62: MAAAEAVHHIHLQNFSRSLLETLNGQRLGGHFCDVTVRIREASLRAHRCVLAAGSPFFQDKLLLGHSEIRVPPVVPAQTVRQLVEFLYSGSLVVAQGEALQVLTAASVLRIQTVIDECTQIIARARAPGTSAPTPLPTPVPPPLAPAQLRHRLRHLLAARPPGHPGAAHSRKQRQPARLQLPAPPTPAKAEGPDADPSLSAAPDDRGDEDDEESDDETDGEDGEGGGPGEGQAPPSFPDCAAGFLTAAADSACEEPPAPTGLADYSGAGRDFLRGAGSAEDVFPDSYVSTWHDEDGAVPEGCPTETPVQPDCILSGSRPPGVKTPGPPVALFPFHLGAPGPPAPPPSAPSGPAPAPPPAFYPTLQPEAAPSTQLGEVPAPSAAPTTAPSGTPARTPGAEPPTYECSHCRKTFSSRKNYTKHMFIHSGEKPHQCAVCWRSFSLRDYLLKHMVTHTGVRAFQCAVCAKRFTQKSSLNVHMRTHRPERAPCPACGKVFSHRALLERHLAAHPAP

The list shows a part of the results. Most values lie at the level of the controls, where differences are scatter.
Each target was assayed with Cc1nc(Nc2ncc(C(=O)Nc3c(C)cccc3Cl)s2)cc(N2CCN(CCO)CC2)n1 [dasatinib] (assay: log2 fold change of tryptic peptide abundance, ligand vs vehicle (limited proteolysis) (log2 ratio); higher = more trypsin-susceptible (destabilized)). Details: ligand concentration: 5 uM; sample: K562 cleared lysate.
“ZNF512 (peptide sequence: RIKPAATSHVEGSGGVSAK, peptide start residue: 82) (UniProt Q96ME7)” gave a log2 fold change of -0.288. Work on “OXNAD1 (peptide sequence: EHICFEK, peptide start residue: 304) (UniProt Q96HP4)” yielded a log2 fold change of 0.164. “RILP (peptide sequence: IQSFFGLWYR, peptide start residue: 340) (UniProt Q96NA2)” was tested, and the log2 fold change was 0.877. “PPP1R10 (peptide sequence: STGLELETPSLVPVKK, peptide start residue: 210) (UniProt Q96QC0)” gave a log2 fold change of -0.138. “TUBGCP6 (peptide sequence: VGENVSDVAPIR, peptide start residue: 1225) (UniProt Q96RT7)” gave a log2 fold change of -0.157. Target “YTHDC1 (peptide sequence: GISPIVFDR, peptide start residue: 306) (UniProt Q96MU7)” has a log2 fold change of -0.694. “NUDCD1 (peptide sequence: KNEGLTWPELVIGDK, peptide start residue: 351) (UniProt Q96RS6)” was tested, and the log2 fold change was -0.559. Target “UniProt Q96JG6 (peptide sequence: SEVLQESIRK, peptide start residue: 434)” has a log2 fold change of 0.806. “FMC1 (peptide sequence: HVALHQEFHGK, peptide start residue: 76) (UniProt Q96HJ9)” was tested, and the log2 fold change was -0.726. “UniProt Q96LW1 (peptide sequence: KHQKNHTGEK, peptide start residue: 231)” showed a log2 fold change of -0.259. “UniProt Q96K62 (peptide sequence: HLLAARPPGHPGAAHSR, peptide start residue: 155)” gave a log2 fold change of -0.62.

— the supplement of paper PMC12819154, “High-throughput peptide-centric local stability assay extends protein–ligand identification to membrane proteins, tissues and bacteria” (Nature Structural & Molecular Biology, 2025)
